Experimental data taken from PubChem BioAssay AID2685 (National Center for Advancing Translational Sciences (NCATS), 2010).
The other results are listed elsewhere or left out. The main result of the screen is listed elsewhere. These columns were measured beside it and carry no call. Compounds called inactive in the main read-out are mostly missing here. The note in brackets gives the kind of curve behind each potency; many fits are weak.

Assay: qHTS Assay for Lipid Storage Modulators in Drosophila S3 Cells;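 for cell number change: cells counted by Cell Tracker Red CMTPX staining in the red channel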
Details: BODIPY lipid droplet fluorescence, 18-24 h; for cell number change: measured here: cell count max response, cells fed with added oleic acid
Method in brief: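 Laser-scanning cytometry quantifies lipid droplet accumulation (500–530 nm total intensity; droplet/cell object ratio) in oleic acid-fed (400 uM added) Drosophila S3 cells treated with a concentration series. 20 uM Triacsin C defined 100% inhibition.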

[1] = measured here: lipid fluorescence (Fed channel) AC50, cells fed with added oleic acid
[2] = measured here: cell number channel AC50, cells fed with added oleic acid

SMILES | cell number change | AC50 [1] | AC50 [2]
NC(=O)c1nsc(C(=O)N(CC(=O)NCc2ccco2)c2ccccc2F)c1N | -25.9% | 0.366 µM [falling, full curve, poor fit] | 
O=C(COC(=O)c1cccc(C(=O)OCC(=O)NC2CCCCC2)n1)NC1CCCCC1 |  | 0.164 µM [falling, full curve, poor fit] | 
COc1cccc(C(=O)CSc2nnc(CNS(C)(=O)=O)n2-c2ccc(C)cc2)c1 |  |  | 5.8 µM [rising, single point]
CSCCC(NS(=O)(=O)c1ccc(C)cc1)C(=O)N1CC=C(c2ccccc2)CC1 (stereo not given) |  | 0.82 µM [rising, partial curve] | 
CN(Cc1nc2ccc(F)cc2[nH]1)C(=O)C1CCC(=O)N(C2CC2)C1 (stereo not given) | -2.08% |  | 
Cc1ccc(OCc2nnc(N)s2)cc1C | 65.6% | 25.9 µM [rising, single point] | 4.11 µM [rising, partial curve]
N#Cc1c(NC(=O)CSc2nnnn2C2CCCC2)sc2c1CCCC2 |  | 0.58 µM [rising, single point] | 0.58 µM [rising, single point]
COc1cc(C(=O)O)cc(Br)c1OC1CCCC1 | -20.4% | 8.2 µM [falling, partial curve] | 0.259 µM [falling, full curve, poor fit]
CCn1c(=O)cc(SCC(=O)N2CCN(c3ccccn3)CC2)c2ccccc21 | 246% | 5.8 µM [rising, partial curve] | 8.2 µM [rising, partial curve]
O=C(CSc1ncn[nH]1)N(C1CCCCC1)C1CCCCC1 | 38.7% |  | 20.6 µM [rising, single point]
O=S(=O)(c1ccc(N2CCN(Cc3ccc4c(c3)OCO4)CC2)nc1)N1CCOCC1 | 3.38% |  | 
O=C1CCc2cc(S(=O)(=O)N3CCC(C(=O)NC4CCCc5ccccc54)CC3)ccc2N1 (stereo not given) | 10.5% |  | 
CCn1c(O)c(/C=C2\C=Nc3ccccc32)sc1=O | -8.44% |  | 
CC(=O)Nc1ccc(NC(=O)Nc2cccc(Cl)c2)cc1 | 26.2% |  | 
CCNC(=S)N1CCN(c2cccc(C(F)(F)F)c2)CC1 | 34% | 9.2 µM [rising, partial curve] | 6.51 µM [rising, partial curve]
FC(F)(F)c1cccc(-n2cccc2/C=N/n2cnnc2)c1 | -24.7% |  | 
CCC(=NCCc1c(C)[nH]c2ccccc12)C1=C(O)CC(c2ccccc2)CC1=O (stereo not given) | -4.08% | 29.1 µM [falling, single point] | 
c1ccc2[nH]c(CN3CCN(c4ncnc5c4oc4ccccc45)CC3)nc2c1 | -14.1% | 0.651 µM [rising, full curve, poor fit] | 
CCCCCOc1ccc(/C=C/c2c([N+](=O)[O-])c(=O)n(C)c(=O)n2C)cc1 | 0.901% | 0.0291 µM [falling, full curve, poor fit] | 
CCOc1ccc(S(=O)(=O)N2CCCC(C(=O)NC3CCCC3)C2)cc1 (stereo not given) | -8.29% | 29.1 µM [rising, single point] | 

Looked up by compound from the entries so far:
SMILES | cell number change | AC50 [1] | AC50 [2]
O=C(CSc1ncn[nH]1)N(C1CCCCC1)C1CCCCC1 | 38.7% |  | 20.6 µM [rising, single point]
NC(=O)c1nsc(C(=O)N(CC(=O)NCc2ccco2)c2ccccc2F)c1N | -25.9% | 0.366 µM [falling, full curve, poor fit] | 

The listing continues:

SMILES | cell number change | AC50 [1] | AC50 [2]
Cc1ccc(-c2nn(-c3ccccc3)cc2/C=N/NC(=O)c2ccc3c(c2)OCO3)cc1 | -29.6% |  | 1.46 µM [falling, full curve, poor fit]
Cc1ccc2c(Cl)cc(Cl)c(OCC(=O)Nc3cc(S(=O)(=O)N(C)C)ccc3C)c2n1 | -18% | 29.1 µM [falling, single point] | 
CSC1=NC2(CCCCC2)C2=C(CCCC2)N1 |  | 1.84 µM [falling, full curve] | 
Cc1ccc(NC(=O)COC(=O)c2ccc(F)cc2Cl)c(Br)c1 | -21.9% | 6.51 µM [falling, single point] | 
CC(OC(=O)Cn1cnc2ccccc2c1=O)C(=O)NCc1ccccc1 (stereo not given) | -10% |  | 
Cc1ccc(N2CC(C(=O)Nc3nnc(C(C)C)s3)CC2=O)cc1 (stereo not given) | -3.86% | 18.4 µM [falling, single point] | 2.31 µM [falling, partial curve]
Cc1ccc(C(=O)NCC(=O)OCCOc2ccccc2Cl)cc1 | 47.8% |  | 29.1 µM [rising, single point]
CC(=O)c1cccc(NC(=S)NC(=O)c2ccc(Br)cc2)c1 | 31.5% | 20.6 µM [rising, single point] | 9.2 µM [rising, partial curve]
O=C(c1cccnc1)C1Cc2ccccc2C1=O (stereo not given) | 4.89% |  | 
COCc1cc(C)nc(SCC(=O)Nc2ccccc2C)c1C#N | 76.7% | 0.0058 µM [rising, full curve, poor fit] | 0.0058 µM [rising, full curve, poor fit]
COc1ccc2sc(NC(=O)CC(C)C)nc2c1 | -32.3% | 2.06 µM [rising, full curve, poor fit] | 10.3 µM [falling, partial curve]
O=[N+]([O-])c1ccc(N2CCCCC2)c(Cl)c1N1CCCCC1 | -24.5% | 14.6 µM [falling, partial curve, poor fit] | 
COC(=O)c1ccccc1NC(=S)N1CCN(c2ccccc2)CC1 | -30% | 16.4 µM [falling, partial curve, poor fit] | 29.1 µM [falling, single point]
Cc1c(C(=O)NCC2COc3ccccc3O2)oc2ccc(S(=O)(=O)N(C)C3CCCCC3)cc12 (stereo not given) | 33.2% | 2.91 µM [rising, partial curve] | 1.84 µM [rising, full curve]
CCOc1ccc(S(=O)(=O)NCCC(=O)N2CCCCCCC2)cc1 | -39% | 29.1 µM [falling, single point] | 29.1 µM [falling, single point]
CCCCSCCCNC(=O)c1cn(CC)c2ccc(S(=O)(=O)N3CCOCC3)cc2c1=O | -0.806% | 0.0326 µM [falling, full curve, poor fit] | 
C(#Cc1ccc2c(c1)COc1c3ccccc3nn1-2)c1ccccc1 | -21% | 18.4 µM [falling, single point] | 
COc1ccc(NC(=O)CCN2CCCCCC2)c(OC)c1 | 61.1% | 29.1 µM [rising, partial curve, poor fit] | 29.1 µM [rising, single point]
COc1ccc(-c2nc3cc([N+](=O)[O-])ccc3o2)cc1OC | -16.4% | 0.82 µM [falling, full curve, poor fit] | 0.0651 µM [falling, full curve, poor fit]
O=C(c1ccc(-c2ccccc2)cc1)N1CCC(C(=O)N2CCCC2)CC1 | -4.52% | 16.4 µM [falling, partial curve, poor fit] | 

SMILES | cell number change | AC50 [1] | AC50 [2]
O=S(=O)(c1ccc(OCC(O)CN2CCN(c3ccccc3O)CC2)cc1)N1CCOCC1 (stereo not given) | 8.61% | 5.8 µM [rising, partial curve] | 
O=C(N/N=C/c1cccc([N+](=O)[O-])c1O)C(O)(c1ccccc1)c1ccccc1 | -16.2% |  | 
Nc1ccc(S(=O)(=O)c2ccc(N)cc2)cc1 | 4.94% | 4.11 µM [rising, full curve, poor fit] | 
CC1=CC(c2ccccc2)NC(=S)N1 (stereo not given) | 16.3% | 1.16 µM [rising, single point] | 6.51 µM [rising, single point]
CCn1c(SCc2nc3ccccc3c(=O)[nH]2)nnc1-c1ccncc1 |  | 1.3 µM [rising, full curve] | 0.291 µM [rising, full curve]
CCn1c(CSc2n[nH]c(N)n2)nc2cc(C(=O)O)ccc21 | -52% | 20.6 µM [falling, single point] | 23.1 µM [falling, single point]
Nc1c2c(nc3ccc(Br)cc13)N(c1ccccc1)CC2 | -57.1% | 0.651 µM [rising, single point] | 29.1 µM [falling, single point]
Cc1ccccc1-c1nnc(Cc2ccccc2)o1 | 33.1% | 14.6 µM [rising, partial curve] | 10.3 µM [rising, single point]
COc1cccc(C(=O)Nc2ccc3c(c2)C(=O)NC3=O)c1 | -2.99% | 29.1 µM [rising, single point] | 
Nc1ccc(N=Nc2ccccc2)c2ccccc12 | -69.4% | 5.17 µM [falling, full curve] | 6.51 µM [falling, full curve]
N#C/C(=C\c1ccccc1)C(=O)N(c1ccccn1)C1CCCCC1 | -33.6% | 10.3 µM [falling, partial curve] | 23.1 µM [falling, single point]
O=C(O)CCN1CCc2ccccc2C1c1cccs1 (stereo not given) | -5.71% |  | 2.59 µM [rising, partial curve]
O=Cc1ccc(-c2ccc(F)cc2)o1 | -40.7% |  | 8.2 µM [falling, partial curve]
CC(=O)Nc1ccc(OC(=O)c2cc3cc(Br)cc(Br)c3oc2=O)cc1 | -27.2% |  | 5.8 µM [falling, partial curve]
COc1ccc2c(c1)c1c3n2CCN(C)C3=NCC1 | -12.7% |  | 
COc1ccc(NC2C=CS(=O)(=O)C2)cc1 (stereo not given) | -5.78% | 1.84 µM [falling, full curve] | 
Cc1ccsc1C(=O)N/N=C/c1ccc2c(c1)OCO2 |  | 5.17 µM [rising, partial curve] | 
COc1ccc(C2CC(c3ccc(OC)c(OC)c3)=NN2C(=O)c2ccccc2)cc1 (stereo not given) | 31.5% |  | 0.731 µM [rising, full curve, poor fit]
